Test results from patent US4238472A, “Radioimmunoassay for chlorinated dibenzo-p-dioxins” (priority 1978, dated 1980).

Test system: antisera GC-5 and F-12
Assay: Detection of 2,3,7,8-TCDD in spiked, sandy soil samples by radioimmunoassay
Set-up: species or system rabbit
Conditions: antiserum dilution binding 33% of hapten

## Clc1cc2c(cc1Cl)Oc1cc(Cl)c(Cl)cc1O2 [2,3,7,8-TCDD, 2,3,7,8-tetrachlorodibenzo-p-dioxin]
"Cutscum", either antiserum
  detectable amount: 0.7 picomole
"Triton X-305" replacing "Cutscum"
  detectable amount: 0.08 picomole
